Our source for the NP40-soluble protein abundance values is the supplement of paper PMC6411743.

The chains behind the UniProt entries cited, without tags or fusion partners. Where a name states a change or a piece, a line headed by the entry shows the natural chain unless it says otherwise.
UniProt Q9NTI5: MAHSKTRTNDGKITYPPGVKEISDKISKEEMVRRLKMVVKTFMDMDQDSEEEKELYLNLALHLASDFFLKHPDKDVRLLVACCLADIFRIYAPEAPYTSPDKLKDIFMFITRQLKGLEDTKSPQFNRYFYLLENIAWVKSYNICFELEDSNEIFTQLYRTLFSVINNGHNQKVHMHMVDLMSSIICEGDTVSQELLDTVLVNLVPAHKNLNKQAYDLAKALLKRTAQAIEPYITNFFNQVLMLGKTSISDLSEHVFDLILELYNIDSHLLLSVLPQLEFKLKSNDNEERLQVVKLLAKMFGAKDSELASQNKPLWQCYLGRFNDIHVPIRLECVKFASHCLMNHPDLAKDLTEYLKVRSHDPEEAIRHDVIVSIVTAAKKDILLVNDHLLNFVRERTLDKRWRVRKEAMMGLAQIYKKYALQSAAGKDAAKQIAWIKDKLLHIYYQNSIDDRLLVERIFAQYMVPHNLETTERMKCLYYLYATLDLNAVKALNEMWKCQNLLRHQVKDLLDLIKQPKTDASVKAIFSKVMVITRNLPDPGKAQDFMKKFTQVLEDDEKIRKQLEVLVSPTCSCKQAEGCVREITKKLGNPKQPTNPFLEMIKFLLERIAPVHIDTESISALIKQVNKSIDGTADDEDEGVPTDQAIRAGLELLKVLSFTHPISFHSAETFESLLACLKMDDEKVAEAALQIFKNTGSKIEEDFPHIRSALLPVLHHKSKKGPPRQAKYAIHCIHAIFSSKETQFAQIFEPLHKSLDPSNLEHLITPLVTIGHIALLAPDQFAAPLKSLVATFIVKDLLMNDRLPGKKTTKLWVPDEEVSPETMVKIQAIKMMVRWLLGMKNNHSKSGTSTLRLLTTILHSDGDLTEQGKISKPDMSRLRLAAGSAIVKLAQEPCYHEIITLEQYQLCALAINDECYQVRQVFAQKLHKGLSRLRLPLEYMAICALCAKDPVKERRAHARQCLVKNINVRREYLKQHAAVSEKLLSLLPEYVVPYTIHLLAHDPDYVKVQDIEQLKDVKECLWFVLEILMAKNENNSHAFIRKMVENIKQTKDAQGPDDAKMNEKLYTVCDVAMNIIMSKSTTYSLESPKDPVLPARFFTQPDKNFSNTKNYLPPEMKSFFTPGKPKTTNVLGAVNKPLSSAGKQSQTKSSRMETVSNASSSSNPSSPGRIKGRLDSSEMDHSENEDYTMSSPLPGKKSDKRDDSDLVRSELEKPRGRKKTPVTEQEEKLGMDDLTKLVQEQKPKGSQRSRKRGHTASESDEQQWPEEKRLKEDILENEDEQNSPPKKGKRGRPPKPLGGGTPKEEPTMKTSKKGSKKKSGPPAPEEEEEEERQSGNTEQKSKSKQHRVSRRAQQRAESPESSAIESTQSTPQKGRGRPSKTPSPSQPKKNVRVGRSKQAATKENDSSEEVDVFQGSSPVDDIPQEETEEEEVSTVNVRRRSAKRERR
UniProt Q969T9: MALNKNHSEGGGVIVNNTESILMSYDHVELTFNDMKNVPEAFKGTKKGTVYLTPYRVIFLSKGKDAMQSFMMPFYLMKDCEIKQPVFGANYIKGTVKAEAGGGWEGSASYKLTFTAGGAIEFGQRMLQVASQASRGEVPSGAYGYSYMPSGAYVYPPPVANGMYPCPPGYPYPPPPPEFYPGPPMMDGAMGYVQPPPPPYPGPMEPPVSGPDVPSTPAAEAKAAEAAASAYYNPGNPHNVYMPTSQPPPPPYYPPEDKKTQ
UniProt Q15369, whole entry: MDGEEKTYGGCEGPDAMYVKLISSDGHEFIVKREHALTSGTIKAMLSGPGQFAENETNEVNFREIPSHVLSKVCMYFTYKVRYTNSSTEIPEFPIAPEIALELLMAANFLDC
UniProt Q8N3U4: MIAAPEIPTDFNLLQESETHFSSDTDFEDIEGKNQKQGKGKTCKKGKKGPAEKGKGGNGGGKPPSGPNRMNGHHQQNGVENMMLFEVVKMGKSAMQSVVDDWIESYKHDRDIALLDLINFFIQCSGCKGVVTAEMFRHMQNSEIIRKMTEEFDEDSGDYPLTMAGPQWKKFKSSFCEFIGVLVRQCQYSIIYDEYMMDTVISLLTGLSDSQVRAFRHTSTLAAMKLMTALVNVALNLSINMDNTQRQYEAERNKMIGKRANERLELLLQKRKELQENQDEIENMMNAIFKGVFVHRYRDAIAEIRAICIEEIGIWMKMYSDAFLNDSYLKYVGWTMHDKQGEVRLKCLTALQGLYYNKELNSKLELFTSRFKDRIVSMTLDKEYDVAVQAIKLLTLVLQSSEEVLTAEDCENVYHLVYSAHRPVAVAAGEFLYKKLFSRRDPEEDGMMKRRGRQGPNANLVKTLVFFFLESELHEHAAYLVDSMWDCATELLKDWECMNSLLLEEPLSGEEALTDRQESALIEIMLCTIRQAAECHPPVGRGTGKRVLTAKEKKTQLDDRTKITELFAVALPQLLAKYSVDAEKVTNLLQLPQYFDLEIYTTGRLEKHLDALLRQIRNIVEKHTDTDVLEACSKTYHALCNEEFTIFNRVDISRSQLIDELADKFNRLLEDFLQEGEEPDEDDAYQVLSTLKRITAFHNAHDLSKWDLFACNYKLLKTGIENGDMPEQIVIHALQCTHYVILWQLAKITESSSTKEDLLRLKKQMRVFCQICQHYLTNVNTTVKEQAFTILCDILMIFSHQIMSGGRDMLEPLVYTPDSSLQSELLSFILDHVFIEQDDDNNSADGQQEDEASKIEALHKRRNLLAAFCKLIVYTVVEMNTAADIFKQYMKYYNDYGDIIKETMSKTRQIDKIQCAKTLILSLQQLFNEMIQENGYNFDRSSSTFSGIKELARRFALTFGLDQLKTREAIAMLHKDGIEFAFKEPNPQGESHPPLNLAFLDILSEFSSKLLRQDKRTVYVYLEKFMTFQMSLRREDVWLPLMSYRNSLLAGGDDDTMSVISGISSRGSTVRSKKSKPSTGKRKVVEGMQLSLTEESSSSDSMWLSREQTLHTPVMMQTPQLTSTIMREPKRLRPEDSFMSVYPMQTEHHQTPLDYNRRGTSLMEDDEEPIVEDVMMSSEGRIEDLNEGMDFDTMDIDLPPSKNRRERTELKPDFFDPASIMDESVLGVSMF
UniProt Q9Y6X4: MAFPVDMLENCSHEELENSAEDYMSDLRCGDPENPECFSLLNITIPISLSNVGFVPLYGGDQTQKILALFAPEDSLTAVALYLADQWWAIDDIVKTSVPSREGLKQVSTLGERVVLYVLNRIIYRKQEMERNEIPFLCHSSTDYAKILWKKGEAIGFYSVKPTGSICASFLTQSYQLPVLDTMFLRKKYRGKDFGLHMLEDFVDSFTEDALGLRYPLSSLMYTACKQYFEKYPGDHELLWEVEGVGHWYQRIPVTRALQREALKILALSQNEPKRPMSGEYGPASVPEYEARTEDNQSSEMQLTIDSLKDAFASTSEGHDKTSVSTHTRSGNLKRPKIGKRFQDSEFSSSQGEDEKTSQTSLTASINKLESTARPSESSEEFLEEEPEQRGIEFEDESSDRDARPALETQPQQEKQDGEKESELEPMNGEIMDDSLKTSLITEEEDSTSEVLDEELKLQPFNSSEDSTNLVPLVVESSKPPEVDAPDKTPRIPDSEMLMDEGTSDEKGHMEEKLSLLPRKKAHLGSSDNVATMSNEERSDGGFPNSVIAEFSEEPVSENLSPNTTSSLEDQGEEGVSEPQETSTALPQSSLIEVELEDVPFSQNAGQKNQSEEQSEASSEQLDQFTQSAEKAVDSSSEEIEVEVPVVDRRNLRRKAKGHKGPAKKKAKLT
UniProt Q9GZV4: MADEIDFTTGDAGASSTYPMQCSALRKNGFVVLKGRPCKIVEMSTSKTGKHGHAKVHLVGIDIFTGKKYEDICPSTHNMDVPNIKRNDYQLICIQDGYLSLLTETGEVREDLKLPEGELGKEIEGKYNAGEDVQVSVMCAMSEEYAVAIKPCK
UniProt Q9BZL6: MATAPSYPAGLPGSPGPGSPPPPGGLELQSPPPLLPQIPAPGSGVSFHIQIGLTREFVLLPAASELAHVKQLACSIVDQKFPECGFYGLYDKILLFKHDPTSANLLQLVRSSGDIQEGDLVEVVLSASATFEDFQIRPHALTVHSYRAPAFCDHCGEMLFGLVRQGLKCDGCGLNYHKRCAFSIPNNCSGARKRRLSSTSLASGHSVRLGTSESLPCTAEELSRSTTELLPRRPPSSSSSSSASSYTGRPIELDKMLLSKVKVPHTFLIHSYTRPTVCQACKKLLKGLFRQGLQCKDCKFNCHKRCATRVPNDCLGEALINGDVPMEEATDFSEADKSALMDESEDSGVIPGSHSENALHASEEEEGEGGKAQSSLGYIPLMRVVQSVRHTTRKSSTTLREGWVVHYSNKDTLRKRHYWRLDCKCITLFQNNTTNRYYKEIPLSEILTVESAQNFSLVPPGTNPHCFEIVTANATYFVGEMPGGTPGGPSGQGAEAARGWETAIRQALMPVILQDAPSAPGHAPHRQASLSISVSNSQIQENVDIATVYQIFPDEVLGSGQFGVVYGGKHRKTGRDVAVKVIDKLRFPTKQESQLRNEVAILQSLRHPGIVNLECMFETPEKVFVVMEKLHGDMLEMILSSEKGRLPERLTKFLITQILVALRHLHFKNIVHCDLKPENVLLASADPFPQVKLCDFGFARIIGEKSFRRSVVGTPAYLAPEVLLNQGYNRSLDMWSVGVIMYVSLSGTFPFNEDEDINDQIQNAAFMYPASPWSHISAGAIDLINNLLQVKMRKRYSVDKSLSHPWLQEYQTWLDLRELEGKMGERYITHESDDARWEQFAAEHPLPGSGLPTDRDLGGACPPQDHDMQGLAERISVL
UniProt O94925: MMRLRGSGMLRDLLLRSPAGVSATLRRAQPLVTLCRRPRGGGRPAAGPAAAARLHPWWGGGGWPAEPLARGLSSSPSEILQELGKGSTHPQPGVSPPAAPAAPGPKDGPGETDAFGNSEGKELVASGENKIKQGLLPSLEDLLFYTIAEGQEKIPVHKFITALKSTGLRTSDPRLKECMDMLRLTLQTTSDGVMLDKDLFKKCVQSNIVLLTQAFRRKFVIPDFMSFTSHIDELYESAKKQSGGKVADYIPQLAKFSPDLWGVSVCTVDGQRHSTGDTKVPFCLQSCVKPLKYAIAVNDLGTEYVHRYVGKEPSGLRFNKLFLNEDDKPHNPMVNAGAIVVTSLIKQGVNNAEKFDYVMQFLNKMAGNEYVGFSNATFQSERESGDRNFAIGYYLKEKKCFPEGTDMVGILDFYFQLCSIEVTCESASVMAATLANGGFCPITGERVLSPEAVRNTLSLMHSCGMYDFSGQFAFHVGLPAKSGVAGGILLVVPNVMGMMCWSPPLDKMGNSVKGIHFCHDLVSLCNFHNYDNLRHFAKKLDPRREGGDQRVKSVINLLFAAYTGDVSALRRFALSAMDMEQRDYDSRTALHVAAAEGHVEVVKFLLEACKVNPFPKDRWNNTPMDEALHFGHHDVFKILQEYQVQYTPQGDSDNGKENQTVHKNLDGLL
UniProt P18085: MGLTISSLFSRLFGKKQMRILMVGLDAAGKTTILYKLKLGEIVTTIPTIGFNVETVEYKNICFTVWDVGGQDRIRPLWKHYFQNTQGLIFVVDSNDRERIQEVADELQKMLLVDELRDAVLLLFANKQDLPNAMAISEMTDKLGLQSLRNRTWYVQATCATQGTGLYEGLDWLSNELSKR
UniProt Q9BUN8: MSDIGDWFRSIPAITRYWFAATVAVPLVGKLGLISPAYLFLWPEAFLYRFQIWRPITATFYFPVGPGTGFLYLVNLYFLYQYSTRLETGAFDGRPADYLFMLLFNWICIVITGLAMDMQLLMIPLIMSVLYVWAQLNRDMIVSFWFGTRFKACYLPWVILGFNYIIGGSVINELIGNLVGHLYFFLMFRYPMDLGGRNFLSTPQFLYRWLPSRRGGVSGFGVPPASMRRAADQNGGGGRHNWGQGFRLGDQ
UniProt P63165, whole entry: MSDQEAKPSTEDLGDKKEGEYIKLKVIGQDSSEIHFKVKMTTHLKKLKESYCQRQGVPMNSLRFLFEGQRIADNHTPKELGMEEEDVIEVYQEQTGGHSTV
UniProt O43676, whole entry: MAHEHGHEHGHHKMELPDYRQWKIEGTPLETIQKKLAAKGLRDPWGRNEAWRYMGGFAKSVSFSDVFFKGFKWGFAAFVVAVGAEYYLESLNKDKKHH
UniProt O60573: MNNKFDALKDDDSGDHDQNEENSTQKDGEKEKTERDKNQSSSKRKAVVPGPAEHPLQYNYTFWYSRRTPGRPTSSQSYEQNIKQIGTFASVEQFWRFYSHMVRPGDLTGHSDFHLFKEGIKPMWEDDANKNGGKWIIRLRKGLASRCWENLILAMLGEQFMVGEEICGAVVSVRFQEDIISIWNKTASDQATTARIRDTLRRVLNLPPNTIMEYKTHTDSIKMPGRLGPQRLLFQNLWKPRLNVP

± gives the standard deviation of the averaged measurements. Only a part is listed here, and it is no random draw.

Compound in the test: Nc1ncnc2c1ncn2[C@@H]1O[C@H](COP(=O)(O)OP(=O)(O)NP(=O)(O)O)[C@@H](O)[C@H]1O [adenylyl imidodiphosphate]
Put plainly: NP40-soluble protein abundance relative to vehicle (solubility fold change) (ratio); higher = more soluble protein in presence of AMP-PNP. The method, boiled down: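 Crude Jurkat lysate, prepared by Dounce homogenisation, was exposed to eight concentrations from 0.1 to 10 mM for 10 min at room temperature and then 3 min at 37 °C. Solubilisation used 0.8% NP40 with benzonase for 60 min at 4 °C, followed by ultracentrifugation and TMT labelling of the supernatant for LC-MS/MS. After vsn normalisation of intensities, each value is the fold change against the detergent-processed vehicle within each replicate, across three independent experiments.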

As to “A9IYQ1 and related entries (UniProt Q9NTI5)”, the NP40-soluble protein abundance reads like this: (concentration: 1mM) 1.004 ± 0.0096; (concentration: 2mM) 1.009 ± 0.0055; (concentration: 4mM) 1.02 ± 0.011; (concentration: 6mM) 1.05 ± 0.032; (concentration: 8mM) 1.05 ± 0.028; (concentration: 10mM) 1.05 ± 0.018.

Consider “A6NG10 and related entries (UniProt Q969T9)”, for which the NP40-soluble protein abundance is 0.988 ± 0.061 (concentration: 1mM); 1.01 ± 0.039 (concentration: 2mM); 1.04 ± 0.064 (concentration: 4mM); 1.05 ± 0.077 (concentration: 6mM); 1.06 ± 0.068 (concentration: 8mM); 1.08 ± 0.092 (concentration: 10mM).

For the target PGP (UniProt A6NDG6), the NP40-soluble protein abundance (concentration: 1mM) came to 0.975 ± 0.046; the NP40-soluble protein abundance (concentration: 2mM) came to 0.9608 ± 0.0072; the NP40-soluble protein abundance (concentration: 4mM) is 0.992 ± 0.028; the NP40-soluble protein abundance (concentration: 6mM) came out at 1.01 ± 0.056; the NP40-soluble protein abundance (concentration: 8mM) was 1.04 ± 0.012; the NP40-soluble protein abundance (concentration: 10mM) is 1.01 ± 0.028.

For the target “E5RHG8 and related entries (UniProt Q15369)”, the NP40-soluble protein abundance reads like this: (concentration: 1mM) 1.05 ± 0.021; (concentration: 2mM) 1.08 ± 0.031; (concentration: 4mM) 0.99 ± 0.037; (concentration: 6mM) 1.038 ± 0.0023; (concentration: 8mM) 0.989 ± 0.011; (concentration: 10mM) 1.01 ± 0.029.

On to “B1AMT0 and related entries (UniProt Q8N3U4)”, for which the NP40-soluble protein abundance (concentration: 1mM) was 0.939 ± 0.06; the NP40-soluble protein abundance (concentration: 2mM) was 0.861 ± 0.051; the NP40-soluble protein abundance (concentration: 4mM) stood at 0.93 ± 0.019; the NP40-soluble protein abundance (concentration: 6mM) stood at 0.966 ± 0.076; the NP40-soluble protein abundance (concentration: 8mM) was determined as 0.975 ± 0.036; the NP40-soluble protein abundance (concentration: 10mM) is 0.931 ± 0.028.

Consider “D6RB01 and related entries (UniProt Q9Y6X4)”, for which the NP40-soluble protein abundance is, setting by setting: (concentration: 1mM) 1.07 ± 0.047; (concentration: 2mM) 1.09 ± 0.023; (concentration: 4mM) 1.05 ± 0.02; (concentration: 6mM) 1.02 ± 0.023; (concentration: 8mM) 0.994 ± 0.011; (concentration: 10mM) 1.01 ± 0.038.

As for “C9J4W5 and related entries (UniProt Q9GZV4)”, the NP40-soluble protein abundance by setting is: (concentration: 1mM) 0.926 ± 0.091; (concentration: 2mM) 0.916 ± 0.024; (concentration: 4mM) 0.903 ± 0.095; (concentration: 6mM) 0.924 ± 0.027; (concentration: 8mM) 0.931 ± 0.079; (concentration: 10mM) 0.873 ± 0.065.

As to “B4DTS2 and related entries (UniProt Q9BZL6)”, the NP40-soluble protein abundance worked out at 1.03 ± 0.046 (concentration: 1mM); 1.013 ± 0.0081 (concentration: 2mM); 1.02 ± 0.017 (concentration: 4mM); 1.018 ± 0.0075 (concentration: 6mM); 1.03 ± 0.012 (concentration: 8mM); 0.991 ± 0.01 (concentration: 10mM).

Regarding “B8ZZA8 and related entries (UniProt O94925)”, the NP40-soluble protein abundance (concentration: 1mM) came out at 0.9755 ± 0.0052; the NP40-soluble protein abundance (concentration: 2mM) was determined as 0.925 ± 0.048; the NP40-soluble protein abundance (concentration: 4mM) is 0.9629 ± 0.0063; the NP40-soluble protein abundance (concentration: 6mM) is 0.968 ± 0.031; the NP40-soluble protein abundance (concentration: 8mM) turned out to be 0.976 ± 0.04; the NP40-soluble protein abundance (concentration: 10mM) amounted to 0.955 ± 0.019.

Consider “C9JAK5 and related entries (UniProt P18085)”, for which the NP40-soluble protein abundance was 0.936 ± 0.062 (concentration: 1mM); 0.871 ± 0.067 (concentration: 2mM); 0.969 ± 0.034 (concentration: 4mM); 1.01 ± 0.12 (concentration: 6mM); 1.11 ± 0.09 (concentration: 8mM); 0.98 ± 0.025 (concentration: 10mM).

Turning to “B4E1G1 and related entries (UniProt Q9BUN8)”, the NP40-soluble protein abundance by setting is: (concentration: 1mM) 0.989 ± 0.021; (concentration: 2mM) 0.976 ± 0.011; (concentration: 4mM) 0.975 ± 0.015; (concentration: 6mM) 0.985 ± 0.02; (concentration: 8mM) 0.972 ± 0.0099; (concentration: 10mM) 1.01 ± 0.028.

As to “B8ZZN6 and related entries (UniProt P63165)”, the NP40-soluble protein abundance runs as follows: (concentration: 1mM) 0.969 ± 0.055; (concentration: 2mM) 1.04 ± 0.04; (concentration: 4mM) 0.937 ± 0.055; (concentration: 6mM) 0.968 ± 0.058; (concentration: 8mM) 0.909 ± 0.047; (concentration: 10mM) 0.93 ± 0.045.

“B7Z3R9 and related entries (UniProt Q8TE99)”: the NP40-soluble protein abundance reads like this: (concentration: 1mM) 0.9713 ± 0.0074; (concentration: 2mM) 0.948 ± 0.026; (concentration: 4mM) 0.98772 ± 0.00046; (concentration: 6mM) 0.9951 ± 0.0035; (concentration: 8mM) 0.9382 ± 0.00078; (concentration: 10mM) 0.9482 ± 0.0089.

Consider “C9JEX3 and related entries (UniProt Q13614)”, for which the NP40-soluble protein abundance is 1 ± 0.012 (concentration: 1mM); 0.9881 ± 0.003 (concentration: 2mM); 0.988 ± 0.015 (concentration: 4mM); 1.01 ± 0.042 (concentration: 6mM); 0.98 ± 0.027 (concentration: 8mM); 1.01 ± 0.016 (concentration: 10mM).

“C9JKQ2 and related entries (UniProt O43676)”: the NP40-soluble protein abundance is, setting by setting: (concentration: 1mM) 1.03 ± 0.03; (concentration: 2mM) 1.01 ± 0.022; (concentration: 4mM) 1.04 ± 0.037; (concentration: 6mM) 0.998 ± 0.059; (concentration: 8mM) 0.988 ± 0.048; (concentration: 10mM) 1.02 ± 0.018.

Take “B4E1E4 and related entries (UniProt O60573)”: the NP40-soluble protein abundance is 1 ± 0.056 (concentration: 1mM); 1 ± 0.091 (concentration: 2mM); 1.02 ± 0.088 (concentration: 4mM); 1.03 ± 0.024 (concentration: 6mM); 1.05 ± 0.029 (concentration: 8mM); 1.04 ± 0.062 (concentration: 10mM).
